Measurements reported in PubChem BioAssay AID1159578 (Peter MacCallum Cancer Centre, 2015)
In all, the deposit lists about 18,000 reagents; shown is a part drawn at random. Of all reagents, about 1,030 (5.7%) were called active. 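Inactive calls also include pools with fewer than 3300 nuclei, whose migration was not assessed.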 Raw values vary from plate to plate and are shown uncorrected. Unmarked entries are inactive. Not all columns of the deposit are shown. No sequences are given here.

Test: 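Knock-downs that alter how fast lymphatic endothelial cells migrate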 (primary screen)
Cell system: human lymphatic endothelial cells
Reagents: siRNA pool against human genes, 40 nM
Duration: 48 h after transfection
Measured: 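Cells stained with dye and imaged after a scratch; covered wound area and nuclei counted, duplicates averaged, migration set against mock wells and turned into a robust z-score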
Reading the numbers: migration robust z-score: higher = faster migration into the scratch; nuclei per well: higher = more cells in the well
Hit rule: 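Pools averaging fewer than 3300 nuclei are never called; remaining pools count as changed when migration robust z lies outside -2 to 2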
Calls: active = migration changed; inactive = no migration change, or too few cells

gene knocked down	migration robust z-score	nuclei per well, duplicate mean
C19orf33 (GeneID 64073)	0.62	4909
OSGEPL1 (GeneID 64172)	-0.18	5638
FBLN5 (GeneID 10516)	-0.48	5501
LY6G6D (GeneID 58530)	-0.42	6676
TRIM59 (GeneID 286827)	0.93	5228
PTTG1IP (GeneID 754)	1.71	4862
AAGAB (GeneID 79719)	1.01	5614
TMEM141 (GeneID 85014)	-0.46	4936
NDRG2 (GeneID 57447)	-1.35	6020
TUBA1B (GeneID 10376)	-2.27 (active)	5852
CLDN9 (GeneID 9080)	-1.12	3182
PDE10A (GeneID 10846)	-0.83	4562
PADI6 (GeneID 353238)	-1.85	4184
ZNF324 (GeneID 25799)	-0.76	5569
RFT1 (GeneID 91869)	-0.29	5584
CD151 (GeneID 977)	3.25 (active)	7572
DICER1 (GeneID 23405)	-1.31	5652
FCRLA (GeneID 84824)	0.67	4585
KRT35 (GeneID 3886)	-1.39	4143
PLXDC1 (GeneID 57125)	-0.26	5480
OSBPL7 (GeneID 114881)	-0.52	6529
ZNF711 (GeneID 7552)	0.36	6781
TAF1A (GeneID 9015)	1.9	6244
COX6B2 (GeneID 125965)	0.21	6282
TAGLN2 (GeneID 8407)	0.84	5340
ATP5MC1 (GeneID 516)	0.81	3854
MIER1 (GeneID 57708)	-0.24	6540
MCU (GeneID 90550)	-1.09	5260
CYP4F12 (GeneID 66002)	-2	5152
ERAP1 (GeneID 51752)	0.94	5846
SPRR2G (GeneID 6706)	0.26	6760
ORAI3 (GeneID 93129)	-0.7	8720
MAGEE2 (GeneID 139599)	-0.8	6264
L1CAM (GeneID 3897)	0	4782
RBM38 (GeneID 55544)	1.6	4626
GPIHBP1 (GeneID 338328)	-0.5	5887
TRAP1 (GeneID 10131)	0.99	5333
TPM1 (GeneID 7168)	-0.68	4984
ZRANB2 (GeneID 9406)	1.46	7582

Laid out differently: entries from further up.
gene knocked down,migration robust z-score,"nuclei per well, duplicate mean"
RBM38 (GeneID 55544),1.6,4626
GPIHBP1 (GeneID 338328),-0.5,5887
TRAP1 (GeneID 10131),0.99,5333
TPM1 (GeneID 7168),-0.68,4984
ZRANB2 (GeneID 9406),1.46,7582
